Source: patent US6841546B2, “Substituted tetracycline compounds as antifungal agents” (Paratek Pharmaceuticals, Inc., priority 2001, dated 2005)
For some of these results: At least one compound was matched to its structure with a doubt left. Some results were stated once for a whole list of compounds, not compound by compound.

Tests used:
[1] = alone and in synergy with amphotericin B; literature; cited from earlier work
Candida glabrata = assay: Antifungal activity, broth microdilution (NCCLS); assay type: cell-based; conditions: C. giabrata; procedure of example 2

Row | SMILES | antifungal activity [1] | Minimum Inhibitory Concentrations (MIC) (Candida glabrata)
1 | C[C@H]1c2cccc(O)c2C(=O)C2=C(O)[C@]3(O)C(=O)C(C(N)=O)=C(O)[C@@H](N(C)C)[C@@H]3[C@@H](O)[C@@H]21 [doxycycline] | limited antifungal activity | > 64
2 | CN(C)c1ccc(O)c2c1C[C@H]1C[C@H]3[C@H](N(C)C)C(O)=C(C(N)=O)C(=O)[C@@]3(O)C(O)=C1C2=O [minocycline] | limited antifungal activity | > 64
